Laboratory results taken from PubChem BioAssay AID1671190 (National Center for Advancing Translational Sciences (NCATS), 2021).
The campaign covered roughly 580,000 compounds. About 6,100 (1.1%) were called active. Another 15% or so got no clear call; they are omitted. Calls follow the shape of the dose curve; as a rule, active = well fitted inhibition curve with a large enough effect; inconclusive = small, poorly fitted or top-dose-only effect, or another doubt; inactive = no such curve, though single readings can be large or run the other way. The entries are a selection whose mix differs from that of the whole data set. The source gives no active or inactive call for entries shown without one.

Protein sequences, listed by entry. Tags and fused reporters are not part of them. Lines headed by an entry give the natural chain unless they say otherwise; changes in a name come on top.
UniProt P18054: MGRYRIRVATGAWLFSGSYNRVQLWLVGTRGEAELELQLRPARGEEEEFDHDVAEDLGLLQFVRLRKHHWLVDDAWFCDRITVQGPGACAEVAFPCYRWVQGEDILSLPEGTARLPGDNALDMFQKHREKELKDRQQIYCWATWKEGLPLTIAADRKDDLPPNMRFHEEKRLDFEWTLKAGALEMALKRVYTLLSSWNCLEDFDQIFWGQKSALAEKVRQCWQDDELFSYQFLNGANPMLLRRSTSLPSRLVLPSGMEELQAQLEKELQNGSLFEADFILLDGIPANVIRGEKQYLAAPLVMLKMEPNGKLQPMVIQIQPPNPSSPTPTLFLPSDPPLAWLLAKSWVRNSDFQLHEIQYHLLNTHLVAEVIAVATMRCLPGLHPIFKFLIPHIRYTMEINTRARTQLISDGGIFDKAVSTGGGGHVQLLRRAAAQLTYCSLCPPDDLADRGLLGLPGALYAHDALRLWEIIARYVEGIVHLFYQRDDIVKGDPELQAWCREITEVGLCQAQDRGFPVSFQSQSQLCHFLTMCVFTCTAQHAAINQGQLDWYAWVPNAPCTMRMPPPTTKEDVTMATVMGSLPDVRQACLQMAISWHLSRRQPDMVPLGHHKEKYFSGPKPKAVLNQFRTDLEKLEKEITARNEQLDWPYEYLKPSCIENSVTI

target: Polyunsaturated fatty acid lipoxygenase ALOX12 (Homo sapiens) (UniProt P18054); test: Primary qHTS assay for inhibitors of human arachidonate 12S-lipoxygenase (ALOX12): Round 2; settings: purified 12hLO, xylenol orange hydroperoxide absorbance; activity change, negative = inhibition: at 0.00344 µM (top of the series) unless noted
Method in brief: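 Purified human 12hLO at 150 nM in 25 mM Hepes, 0.01% Triton X-100, pH 7.0, preincubated 15 min at room temperature with compound. Reaction started with 40 uM arachidonic acid, 30 min at room temperature. Hydroperoxide measured by Fe-xylenol orange, 573/405 nm absorbance ratio.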
% is scaled to controls: 0 for no effect and ±100 for the full control effect; potency is read from the fitted curve at half-maximal effect.

SMILES	activity change, negative = inhibition	Potency
CCN[C@@H](C)Cc1ccccc1	-17.9% [at 0.0105 µM]	
CCO[C@H]1O[C@@H]2OC3(C)CC[C@H]4[C@H](C)CC[C@@H]([C@H]1C)[C@@]24OO3	-33.1%	
COc1cc(CC(C)N)cc2c1OCO2 (centres undefined)	-17.3% [at 0.00599 µM]	
CN1CCc2cc(Cl)c(O)cc2[C@H]2c3ccccc3CC[C@@H]21	7.89%	
CCN(CC)CCOC(=O)C(C)(c1ccccc1)c1ccccc1	4.12%	
Cc1ccc(-c2nc3ccc(C)cn3c2CC(=O)N(C)C)cc1	29.2%	
CC(C)N(CCC(C(N)=O)(c1ccccc1)c1ccccn1)C(C)C (centres undefined)	-4.01%	
C=CCN1C[C@H](C)N([C@H](c2ccc(C(=O)N(CC)CC)cc2)c2cccc(OC)c2)C[C@H]1C	32.6%	
N[C@@H](Cc1ccc(N(CCCl)CCCl)cc1)C(=O)O	15.8%	
Clc1cccc(CNCCc2c[nH]c3ccccc23)c1		active: 4.47 µM
C[C@]12C=CC(=O)C=C1CC[C@@H]1[C@@H]2CC[C@@]2(C)[C@H]1CC[C@]2(C)O	16%	
COc1ccc(CN2CCNCC2)c(OC)c1OC	-6.76%	
CC(C)(N)Cc1ccc(Cl)cc1	-8.7%	
O=C(CCN1CCN(CCO)CC1)N1c2ccccc2Sc2ccc(C(F)(F)F)cc21	18%	
O=C1OC(CCN2CCCCC2)OC1(c1ccccc1)c1ccccc1 (centres undefined)	14.6%	
Cc1cc(O)ccc1Cl	50.4%	
C#C[C@]1(O)C=C[C@H]2[C@@H]3CCC4=CC(=O)CC[C@@H]4[C@H]3CC[C@@]21CC	-8.43%	
CCC1C(=O)OCC1Cc1cncn1C (centres undefined)	28.6%	
CN(C)C(=S)SSC(=S)N(C)C	16.2%	
C=CCN1C(=O)NC(=O)/C(=C\c2ccc(-c3ccccc3[N+](=O)[O-])o2)C1=O		active: 35.5 µM
Cc1ccc(S(=O)(=O)Oc2ccccc2C=C2C(=O)N(C)C(=O)N(C)C2=O)cc1		active: 44.7 µM
CN1C(=O)CN=C(c2ccccc2)c2cc([N+](=O)[O-])ccc21	25.4%	
Cc1cc(Cc2c(O)[nH]c(=S)[nH]c2=O)ccc1OC(C)C		active: 20 µM
CC(CC(C(N)=O)(c1ccccc1)c1ccccc1)N(C)C (centres undefined)	12.5%	
CCN(C(C)=O)c1cccc(-c2ccnc3c(C#N)cnn23)c1	-5.87%	
CCC(COC(=O)c1cc(OC)c(OC)c(OC)c1)(c1ccccc1)N(C)C (centres undefined)	20%	
COc1cc(C[C@@H](C)N)c(OC)cc1Br	-26.5% [at 0.00599 µM]	
CCN(CC)C(=O)[C@@H]1C=C2c3cccc4[nH]cc(c34)C[C@H]2N(C)C1	4.14% [at 0.0215 µM]	
Cc1cccc(C)c1NC1=NCCCS1	-0.395%	

Sorted by number of heavy atoms (high to low): some entries from above.
SMILES	activity change, negative = inhibition	Potency
CC(C)N(CCC(C(N)=O)(c1ccccc1)c1ccccn1)C(C)C (centres undefined)	-4.01%	
CCN(CC)C(=O)[C@@H]1C=C2c3cccc4[nH]cc(c34)C[C@H]2N(C)C1	4.14% [at 0.0215 µM]	
CCN(C(C)=O)c1cccc(-c2ccnc3c(C#N)cnn23)c1	-5.87%	
CCO[C@H]1O[C@@H]2OC3(C)CC[C@H]4[C@H](C)CC[C@@H]([C@H]1C)[C@@]24OO3	-33.1%	
Cc1cc(Cc2c(O)[nH]c(=S)[nH]c2=O)ccc1OC(C)C		active: 20 µM
COc1ccc(CN2CCNCC2)c(OC)c1OC	-6.76%	
CN(C)C(=S)SSC(=S)N(C)C	16.2%	
Cc1cc(O)ccc1Cl	50.4%	
